Reference: patent US20080181901A1
Results are given in words; binding and its absence hold for the method and conditions named. For some assays here: In cells and extracts the contact can be indirect. Some binding calls cover weakened binding; strength is not graded here. For some assays here: Where a sequence is shown, tags or fusion partners need not be part of it.

Chains of the proteins cited; added tags and fusions are not shown. Residues count along the entry.
UniProt P97370, residues 120-258: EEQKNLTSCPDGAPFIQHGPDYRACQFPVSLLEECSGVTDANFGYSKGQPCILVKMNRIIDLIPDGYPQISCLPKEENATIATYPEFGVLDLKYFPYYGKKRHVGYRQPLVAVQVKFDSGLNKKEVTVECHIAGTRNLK

What was measured:
[1] = molecular target: Na,K-ATPase β1 subunit amino acids 110-273, yeast two-hybrid library clone (mouse) (UniProt P14094); assay: yeast two-hybrid screen, MONaKA as bait
[2] = molecular target: Na,K-ATPase β3 subunit amino acids 120-258, yeast two-hybrid library clone (mouse) (UniProt P97370); assay: yeast two-hybrid screen, MONaKA as bait
[3] = molecular target: Myc-tagged Na,K-ATPase β1 subunit C-terminal fragment (amino acids 110-273) (mouse) (UniProt P14094); assay: co-immunoprecipitation from transfected tsA201 cells, both directions
[4] = molecular target: Myc-tagged Na,K-ATPase β3 subunit C-terminal fragment (amino acids 120-258) (mouse) (UniProt P97370); assay: as above
[5] = molecular target: Myc-tagged full-length Na,K-ATPase β1 subunit (mouse) (UniProt P14094); assay: as above
[6] = molecular target: Myc-tagged full-length Na,K-ATPase β1 subunit (mouse) (UniProt P14094); assay: co-immunoprecipitation from transfected tsA201 cells, anti-HA or anti-Myc IP, Western blot
[7] = molecular target: Myc-tagged Na,K-ATPase β1 subunit C-terminal fragment (amino acids 110-273) (mouse) (UniProt P14094); assay: co-immunoprecipitation from transfected tsA201 cells, Western blot
[8] = molecular target: Myc-tagged Na,K-ATPase β3 subunit C-terminal fragment (amino acids 120-258) (mouse) (UniProt P97370); assay: as above

Measured: binding

B1: mouse full-length MONaKA, yeast two-hybrid bait in pGBKT7 (protein)
chain: MAFMEKPPAGKVLLDDTVPLTAAVEASQSLQSHTEYIIRVQRGISAENSWQIVRRYSDFDLLNNSLQITGLSLPLPPKKLIGNMDREFIAERQRGLQNYLNVIMANHVLSNCELLKKFLDPNNYSANYTEIALQQVSMFFRSEPKWEVVEPLKDIGWRIRKKYFLMKIKNQPKERLVLSWADLGPDKYLSDKDFQCLIKLLPSCVHPYIYRVTFATASESSALLIRAFNEKGTLKDLIYKAKPKDPFLKKYCNPKKTQGLELQQIKTYGRQILEALKFLHDKGFPYGHLHAANVMLDGNTCRLLDLENSLLGLPSFYRSYFTQFRKINTLESVDVHCFGHLLYEMTYGRPPDSVPVDSFPPASSLAVVAVLESTLSCEACKNGMPTVSRLLQMPLFSDVLLTTSEKPQFKIPTKLKEALRIAKECIEKRLTEEQKQIHQHRRLTRAQSHHGSEEERKRRKILARKKSKRSAVENSEEQPVKHSNSNNSGSGASSPLTSPSSPTPPSTAGLSSALPPPPPPPPPPPPPAGPSPTSATEMPAPFLPQPVNGVNRGALLSSIQNFQKGTLRKAQTCDHSAPKIG
binds: [1] | [2]

B2: HA-tagged full-length MONaKA (mouse), expressed in tsA201 cells (protein, not shown: small tags and cut ends)
chain: B1 chain
not listed: [1] | [2]
binds: all other assays above
